Data taken from publication PMC8792056 (2022).
Results are given in words; binding and its absence hold for the method and conditions named. In cells and extracts the contact can be indirect. For part of these data: A result given as binding can be weak or reduced; the word gives no strength.

Tests used:
[1] = molecular target: DNAJB14-HPDmut1, FLAG-tagged (human) (UniProt Q8TBM8); experiment: co-IP; HEK293T cells co-transfected with FLAG-tagged DNAJB14 forms and DNAJB12-FL-mOrange; lysis in 50 mM HEPES pH 7.9, 0.5% Triton X-100, 5% glycerol, 150 mM NaCl, 2 mM EDTA; anti-FLAG M2 beads 3 h at 4 °C, 7 washes; blot with anti-RFP for mOrange, normalised to the FLAG band
[2] = molecular target: DNAJB14-short, FLAG-tagged (human); experiment: as above
[3] = molecular target: DNAJB12-short tagged with FLAG (human); experiment: co-IP; reverse experiment (Supplementary Fig. 6q, r): DNAJB12-short with DNAJB14-FL in cells; which of the two was the FLAG-tagged bait is not given

Binder	binding [1]	binding [2]	binding [3]
DNAJB12-FL-mOrange (protein, UniProt Q9NXW2-1 1-375) MESNKDEAERCISIALKAIQSNQPDRALRFLEKAQRLYPTPRVRALIESLNQKPQTAGDQPPPTDTTHATHRKAGGTDAPSANGEAGGESTKGYTAEQVAAVKRVKQCKDYYEILGVSRGASDEDLKKAYRRLALKFHPDKNHAPGATEAFKAIGTAYAVLSNPEKRKQYDQFGDDKSQAARHGHGHGDFHRGFEADISPEDLFNMFFGGGFPSSNVHVYSNGRMRYTYQQRQDRRDNQGDGGLGVFVQLMPILILILVSALSQLMVSSPPYSLSPRPSVGHIHRRVTDHLGVVYYVGDTFSEEYTGSSLKTVERNVEDDYIANLRNNCWKEKQQKEGLLYRARYFGDTDMYHRAQKMGTPSCSRLSEVQASLHG	binds	no binding	
DNAJB14-FL (partner of DNAJB12-short in the reverse co-IP of Supplementary Fig. 6q, r) (protein, UniProt Q8TBM8-1 1-379) MEGNRDEAEKCVEIAREALNAGNREKAQRFLQKAEKLYPLPSARALLEIIMKNGSTAGNSPHCRKPSGSGDQSKPNCTKDSTSGSGEGGKGYTKDQVDGVLSINKCKNYYEVLGVTKDAGDEDLKKAYRKLALKFHPDKNHAPGATDAFKKIGNAYAVLSNPEKRKQYDLTGNEEQACNHQNNGRFNFHRGCEADITPEDLFNIFFGGGFPSGSVHSFSNGRAGYSQQHQHRHSGHEREEERGDGGFSVFIQLMPIIVLILVSLLSQLMVSNPPYSLYPRSGTGQTIKMQTENLGVVYYVNKDFKNEYKGMLLQKVEKSVEEDYVTNIRNNCWKERQQKTDMQYAAKVYRDDRLRRKADALSMDNCKELERLTSLYKGG			no binding
